Experimental data: article PMC11442630
Results are given in words; binding and its absence hold for the method and conditions named. In cells and extracts the contact can be indirect. Some results given as binding are weak or reduced against the parent protein; the word gives no strength. Blank lines part the entries; values can stand above or below the molecule they belong to.

Sequences of proteins named here, by UniProt entry; tags and fusion partners are left off.
UniProt O94972: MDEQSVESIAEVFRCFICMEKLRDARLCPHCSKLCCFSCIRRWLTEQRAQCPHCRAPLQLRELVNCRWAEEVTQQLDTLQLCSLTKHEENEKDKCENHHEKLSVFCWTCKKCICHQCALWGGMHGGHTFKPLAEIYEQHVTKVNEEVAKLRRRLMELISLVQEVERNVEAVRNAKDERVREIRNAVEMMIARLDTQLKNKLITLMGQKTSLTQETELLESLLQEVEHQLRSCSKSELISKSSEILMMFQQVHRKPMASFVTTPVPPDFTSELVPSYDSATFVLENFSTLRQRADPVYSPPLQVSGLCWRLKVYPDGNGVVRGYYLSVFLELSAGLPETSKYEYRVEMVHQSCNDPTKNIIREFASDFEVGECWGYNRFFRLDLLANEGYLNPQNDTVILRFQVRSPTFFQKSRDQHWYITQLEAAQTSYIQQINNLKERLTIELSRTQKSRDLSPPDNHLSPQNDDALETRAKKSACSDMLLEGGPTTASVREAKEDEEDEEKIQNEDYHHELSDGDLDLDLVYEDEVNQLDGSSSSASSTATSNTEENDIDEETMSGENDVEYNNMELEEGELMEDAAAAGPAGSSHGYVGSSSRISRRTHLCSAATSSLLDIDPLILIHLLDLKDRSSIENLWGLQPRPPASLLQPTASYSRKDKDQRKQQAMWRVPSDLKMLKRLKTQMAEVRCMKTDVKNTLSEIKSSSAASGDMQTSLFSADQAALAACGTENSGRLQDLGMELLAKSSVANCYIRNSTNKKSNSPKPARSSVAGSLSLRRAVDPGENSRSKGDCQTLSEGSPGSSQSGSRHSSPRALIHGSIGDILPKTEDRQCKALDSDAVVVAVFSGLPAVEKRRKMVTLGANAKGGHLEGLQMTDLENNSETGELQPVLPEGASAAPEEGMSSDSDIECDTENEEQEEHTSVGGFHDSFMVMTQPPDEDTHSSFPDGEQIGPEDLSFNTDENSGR

Columns and labels:
[1] = target: T1, Kinesin family member C1 (KIFC1) (human (endogenous in HEC-1A and Ishikawa)) (UniProt Q9BW19); experiment: co-IP; HEC-1A and Ishikawa cells lysed in IP lysis buffer with protease inhibitors; immunoprecipitation with anti-PLK4, anti-KIFC1 or normal IgG antibody and protein G-Agarose beads overnight at 4 °C; western blot for KIFC1, TRIM37, PLK4 and GAPDH
T1 sequence: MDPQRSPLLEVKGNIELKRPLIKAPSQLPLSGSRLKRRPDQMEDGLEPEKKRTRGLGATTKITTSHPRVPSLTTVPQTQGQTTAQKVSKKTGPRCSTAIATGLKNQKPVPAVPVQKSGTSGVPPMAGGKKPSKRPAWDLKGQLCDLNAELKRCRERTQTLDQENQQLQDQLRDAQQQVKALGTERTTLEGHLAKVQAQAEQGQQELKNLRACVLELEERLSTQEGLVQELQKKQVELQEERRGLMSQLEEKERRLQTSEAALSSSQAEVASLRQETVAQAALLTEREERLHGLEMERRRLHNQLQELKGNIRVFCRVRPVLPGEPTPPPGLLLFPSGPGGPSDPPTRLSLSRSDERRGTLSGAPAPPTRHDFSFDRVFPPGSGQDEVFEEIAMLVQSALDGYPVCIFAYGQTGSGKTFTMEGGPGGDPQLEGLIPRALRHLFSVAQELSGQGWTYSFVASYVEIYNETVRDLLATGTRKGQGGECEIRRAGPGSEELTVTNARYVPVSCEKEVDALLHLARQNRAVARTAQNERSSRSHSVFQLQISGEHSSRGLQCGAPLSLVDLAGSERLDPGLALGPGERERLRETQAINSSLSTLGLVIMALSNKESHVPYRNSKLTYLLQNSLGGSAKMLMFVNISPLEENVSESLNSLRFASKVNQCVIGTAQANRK

[2] = target: T2, polo-like kinase 4 (PLK4) (human (endogenous in HEC-1A and Ishikawa)) (UniProt O00444); experiment: as above
T2 sequence: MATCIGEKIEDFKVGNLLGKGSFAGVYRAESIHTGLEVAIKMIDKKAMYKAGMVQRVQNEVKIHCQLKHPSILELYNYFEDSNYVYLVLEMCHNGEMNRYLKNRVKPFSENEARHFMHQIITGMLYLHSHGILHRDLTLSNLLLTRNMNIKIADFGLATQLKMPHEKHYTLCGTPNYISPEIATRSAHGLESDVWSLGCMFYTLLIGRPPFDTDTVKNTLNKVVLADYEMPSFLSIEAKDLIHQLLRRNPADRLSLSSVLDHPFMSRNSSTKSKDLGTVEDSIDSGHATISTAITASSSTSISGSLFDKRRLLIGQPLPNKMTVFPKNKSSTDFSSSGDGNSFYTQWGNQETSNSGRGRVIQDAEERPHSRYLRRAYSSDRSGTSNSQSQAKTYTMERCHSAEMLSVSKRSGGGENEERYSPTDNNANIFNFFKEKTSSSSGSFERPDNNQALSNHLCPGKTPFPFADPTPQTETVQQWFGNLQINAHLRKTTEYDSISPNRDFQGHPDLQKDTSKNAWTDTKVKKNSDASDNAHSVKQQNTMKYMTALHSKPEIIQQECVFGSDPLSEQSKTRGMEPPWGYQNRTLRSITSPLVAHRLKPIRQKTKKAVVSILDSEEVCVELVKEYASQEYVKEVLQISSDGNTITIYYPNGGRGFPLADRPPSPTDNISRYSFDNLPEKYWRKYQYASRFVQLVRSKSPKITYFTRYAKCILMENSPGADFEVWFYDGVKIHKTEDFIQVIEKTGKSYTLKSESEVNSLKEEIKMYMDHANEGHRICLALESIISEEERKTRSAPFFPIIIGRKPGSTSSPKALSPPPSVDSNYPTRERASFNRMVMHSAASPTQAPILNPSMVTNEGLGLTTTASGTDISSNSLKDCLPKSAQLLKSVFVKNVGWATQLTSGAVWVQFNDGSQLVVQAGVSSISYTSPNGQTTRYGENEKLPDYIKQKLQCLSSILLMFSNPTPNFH

binding [1]: binds | binding [2]: binds
Molecule: E3 ubiquitin-protein ligase TRIM37 (from UniProt O94972 1-964)

binding [2]: no binding
B1: Kinesin family member C1 (KIFC1) (protein, UniProt Q9BW19 1-673)
chain: T1 sequence
